# Experimental data reported in patent US20050123912A1, “Nucleic-acid associated proteins” (priority 2002, published 2005).
# At least one structure is not confirmed: it was looked up by name or label, or the drawing left a doubt.
# Assays:
# [1] = system: SEQ ID NO:64 expression in human C3A liver cells; assay: Microarray expression of SEQ ID NO:64 in C3A liver cell cultures treated with steroids; format: cell-based; conditions: early confluent human C3A liver cells, 1 μM, 10 μM, and 100 μM for 1, 3, and 6 hours, compared to untreated cells
# [2] = cited from earlier work
Compound,expression of SEQ ID NO:64 [1],potency relative to hydrocortisone ([2]; relative to hydrocortisone),potency relative to prednisone ([2]; relative to prednisone)
C[C@@H]1C[C@H]2[C@@H]3CCC4=CC(=O)C=C[C@]4(C)[C@@]3(F)[C@@H](O)C[C@]2(C)[C@@]1(O)C(=O)CO [dexamethasone],decreased expression,20-30 times,5-7 times
CCCC1O[C@@H]2C[C@H]3[C@@H]4CCC5=CC(=O)C=C[C@]5(C)[C@H]4[C@@H](O)C[C@]3(C)[C@]2(C(=O)CO)O1 (stereo partly shown) [budesonide],decreased expression,–,–
